Measured values published in US20040044182A1 (published 2004).
Results are given in words; binding and its absence hold for the method and conditions named. In cells and extracts the contact can be indirect. Some results given as binding are weak or reduced against the parent protein; the word gives no strength.

Protein sequences, listed by entry. Tags and fused reporters are not part of them. Lines headed by an entry give the natural chain unless they say otherwise; changes in a name come on top.
UniProt P61769: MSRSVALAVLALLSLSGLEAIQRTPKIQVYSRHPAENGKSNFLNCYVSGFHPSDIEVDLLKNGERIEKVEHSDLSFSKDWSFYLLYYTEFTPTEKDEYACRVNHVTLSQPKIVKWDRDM

Legend:
[1] = biological target: T1, β2m (12 kDa non-polymorphic light chain) (human, UniProt P61769 21-119); assay: immunoblot of purified protein with anti-β2m antibody; β2m co-purified
T1 construct: No recombinant β2m was added; It came from the human HEK293 cells and co-purified under native conditions; also called beta-2-microglobulin

[2] = biological target: T1, β2m (12 kDa non-polymorphic light chain); assay: immunoblot of purified protein (10 to 100 ng) with anti-β2m antibody; β2m co-purified

B1: recombinant soluble HLA-G1 (protein)
MHC heavy: APLADYKDDDDKLAGSHSMRYFSAAVSRPGRGEPRFIAMGYVDDTQFVRFDSDSACPRMEPRAPWVEQEGPEYWEEETRNTKAHAQTDRMNLQTLRGYYNQSEASSHTLQWMIGCDLGSDGRLLRGYEQYAYDGKDYLALNEDLRSWTAADTAAQISKRKCEAANVAEQRRAYLEGTCVEWLHRYLENGKEMLQRADPPKTHVTHHPVFDYEATLRCWALGFYPAEIILTWQRDGEDQTQDVELVETRPAGDGTFQKWAAVVVPSGEEQRYTCHVQHEGLPEPLMLRWSKEGDGGIMSVRESRSLSEDL
modifications: glycosylated (N-linked site at asparagine 86 in the α1 region)
B1 was tested, and the binding [1] was “binds” and the binding [2] was “binds”.
